No constants are given. Whether binding was seen depends on the method and setting. In cells and extracts the contact can be indirect. Binding can be weak; no strength is given. Sequences can lack the tags named with a protein.
Assays:
[1] = biological target: T1, Histone deacetylase 8 (human (endogenous in SU-DHL-2/R)) (UniProt Q9BY41); assay: co-IP; endogenous proteins in SU-DHL-2/R cells; one partner immunoprecipitated with its antibody, the other detected by western blotting; control immunoprecipitation with IgG
T1 sequence: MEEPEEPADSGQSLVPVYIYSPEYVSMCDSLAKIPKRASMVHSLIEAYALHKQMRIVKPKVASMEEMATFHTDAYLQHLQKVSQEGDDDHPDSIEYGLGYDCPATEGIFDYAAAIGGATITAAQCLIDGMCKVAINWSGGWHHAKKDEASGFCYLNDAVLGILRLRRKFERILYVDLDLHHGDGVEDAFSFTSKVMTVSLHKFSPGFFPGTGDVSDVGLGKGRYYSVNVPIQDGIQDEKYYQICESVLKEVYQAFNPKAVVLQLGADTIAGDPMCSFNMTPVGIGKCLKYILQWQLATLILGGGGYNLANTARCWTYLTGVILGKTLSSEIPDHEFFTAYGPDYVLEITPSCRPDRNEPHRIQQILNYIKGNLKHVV

[2] = biological target: Pyruvate dehydrogenase kinase 4 (human (endogenous in SU-DHL-2/R)); assay: as above

Molecule: Pyruvate dehydrogenase kinase 4 (human (endogenous in SU-DHL-2/R)) (enzyme)
- binding [1]: binds

B1: Histone deacetylase 8 (enzyme, UniProt Q9BY41 1-377)
chain: T1 sequence
- binding [2]: binds
